Article PMC10866667
These are yes or no findings as the source states them, for the method shown. For some of these results: In cells and extracts the contact can be indirect. Some binding calls cover weakened binding; strength is not graded here. One block for each substance: values may come before it.

Amino acid sequences for entries named in this document (tags omitted). Residues count along the entry.
UniProt P08887, residues 20-468: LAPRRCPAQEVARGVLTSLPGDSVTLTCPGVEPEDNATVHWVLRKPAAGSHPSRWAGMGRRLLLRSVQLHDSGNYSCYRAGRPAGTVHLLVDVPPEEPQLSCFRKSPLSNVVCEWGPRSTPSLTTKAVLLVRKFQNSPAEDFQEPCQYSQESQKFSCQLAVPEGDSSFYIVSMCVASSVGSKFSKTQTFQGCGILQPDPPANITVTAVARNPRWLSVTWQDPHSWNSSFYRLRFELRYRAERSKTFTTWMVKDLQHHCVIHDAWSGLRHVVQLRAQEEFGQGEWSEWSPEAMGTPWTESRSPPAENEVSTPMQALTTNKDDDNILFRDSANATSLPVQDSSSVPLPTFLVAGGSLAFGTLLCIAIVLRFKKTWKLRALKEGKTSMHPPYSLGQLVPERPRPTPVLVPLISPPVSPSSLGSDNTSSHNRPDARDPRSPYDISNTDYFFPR
UniProt Q9BXJ3, residues 17-329: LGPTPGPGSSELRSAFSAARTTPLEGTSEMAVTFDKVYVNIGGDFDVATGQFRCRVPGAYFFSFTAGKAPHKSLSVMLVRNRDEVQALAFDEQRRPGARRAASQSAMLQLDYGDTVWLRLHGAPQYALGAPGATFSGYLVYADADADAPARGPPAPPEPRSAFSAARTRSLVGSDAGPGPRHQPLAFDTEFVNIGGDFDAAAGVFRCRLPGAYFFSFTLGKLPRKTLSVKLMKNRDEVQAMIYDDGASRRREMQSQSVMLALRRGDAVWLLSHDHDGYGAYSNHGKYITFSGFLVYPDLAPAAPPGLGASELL
UniProt Q8R066, residues 17-326: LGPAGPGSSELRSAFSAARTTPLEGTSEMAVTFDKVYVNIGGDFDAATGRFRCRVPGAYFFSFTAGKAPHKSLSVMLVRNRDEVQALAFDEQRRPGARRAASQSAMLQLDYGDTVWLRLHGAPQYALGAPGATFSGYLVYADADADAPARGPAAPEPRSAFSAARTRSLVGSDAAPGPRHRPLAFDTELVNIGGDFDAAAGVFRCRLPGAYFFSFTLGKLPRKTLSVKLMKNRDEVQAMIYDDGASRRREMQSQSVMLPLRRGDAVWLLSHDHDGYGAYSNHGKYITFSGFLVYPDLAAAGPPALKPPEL

Experiments:
[1] = molecular target: IL-6 receptor (IL-6R), in Jurkat cell membrane extract (UniProt P08887); assay: co-IP; membrane protein from Jurkat cell lysates, precipitated with anti-IL-6R antibody and anti-CTRP4 antibody on Protein G Sepharose; lysis buffer 20 mM Tris-HCl pH 7.5, 150 mM NaCl, 0.1% NP-40
[2] = molecular target: IL-6 receptor (IL-6R), in Jurkat cell membrane extract (UniProt P08887); assay: co-IP; Jurkat cells transduced with retrovirus encoding Flag-tagged IL-6 or Flag-tagged IL-6 plus Myc-tagged CTRP4, precipitated with anti-Flag antibody
[3] = molecular target: T1, IL-6R, endogenous in in vitro-differentiated Th17 cells (mouse (endogenous in Th17 cells)) (UniProt P22272); assay: co-IP; cell membrane extracts from in vitro-differentiated Th17 cells, precipitated with anti-IL-6R, blotted with anti-CTRP4 antibody
T1 sequence: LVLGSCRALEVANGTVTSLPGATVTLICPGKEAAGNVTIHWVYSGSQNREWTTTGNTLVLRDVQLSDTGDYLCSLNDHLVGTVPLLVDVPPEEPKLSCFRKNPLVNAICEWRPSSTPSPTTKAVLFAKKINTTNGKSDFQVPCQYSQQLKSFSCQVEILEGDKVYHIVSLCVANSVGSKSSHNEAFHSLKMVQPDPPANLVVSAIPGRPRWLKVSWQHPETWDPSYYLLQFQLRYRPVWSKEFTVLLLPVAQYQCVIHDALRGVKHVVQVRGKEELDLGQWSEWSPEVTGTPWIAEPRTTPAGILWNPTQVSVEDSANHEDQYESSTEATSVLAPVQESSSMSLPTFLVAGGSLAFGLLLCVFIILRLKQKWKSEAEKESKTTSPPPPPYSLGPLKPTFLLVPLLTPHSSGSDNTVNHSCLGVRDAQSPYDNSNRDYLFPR

[4] = molecular target: IL-6 receptor (IL-6R), in Jurkat cell membrane extract (UniProt P08887); assay: radioligand binding; competition: Jurkat cell membrane extract and 125I-CTRP4 with different concentrations of unlabeled CTRP4, OSM or IL-6; 24 hours at 4°C, 25% PEG, γ counter; only the binder purified

binding [1]: binds
Substance: C1q/TNF-related protein 4 (CTRP4), in Jurkat cells (from UniProt Q9BXJ3 17-329)

binding [2]: binds
Substance: Myc-tagged CTRP4 (Jurkat) (from UniProt Q9BXJ3 17-329)

binding [3]: binds
Substance: CTRP4, endogenous in in vitro-differentiated Th17 cells (from UniProt Q8R066 17-326)

binding [4]: binds
Substance: 125I-CTRP4 (from UniProt Q9BXJ3 17-329)
